PubChem BioAssay AID1259254 – NCATS | 2017

Assay: 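Genome-wide screen for genes that prevent DNA re-replication in cancer cells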 (primary screen)
Cell system: human HCT116 colorectal cancer cells
Reagent: single siRNA against human genes
Duration: 3 days
Detection: 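Nuclei stained with Hoechst and imaged; cell-cycle phase assigned by DNA content; G2 share scaled per plate, non-targeting siRNA 0%, GMNN siRNA 100%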
Scale: G2 robust z-score and G2 cells, % of GMNN control: higher = more G2 cells, more excess DNA replication
Active means: 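An siRNA counts as active if its G2 robust z-score lies at least 5 MADs above the screen median; here such calls match roughly 38% of GMNN control or more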
The whole screen tested about 59,000 reagents; below is a part drawn at random. About 1,550 of them (2.6%) were called active. 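G2 share is only a proxy for re-replication; each gene was hit by three separate siRNAs, and active genes were retested.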 The numbers tell different reagents against one gene apart. Further read-outs or replicates are left out here. No sequences are given here. The record does not give: the amount of reagent.

DNAJA1 #1 scored G2 robust z-score 0.407; G2 cells, % of GMNN control 5.83; inactive.
DNAJA1 #2 scored G2 robust z-score -0.741; G2 cells, % of GMNN control -2.24; inactive.
DNAJA1 #3 scored G2 robust z-score -0.333; G2 cells, % of GMNN control 0.621; inactive.
Knock-down of MIXL1 #1 resulted in: G2 robust z-score 3; G2 cells, % of GMNN control 24.1; inactive.
For MIXL1 #2, the entry reads G2 robust z-score -0.33; G2 cells, % of GMNN control 0.643; inactive.
MIXL1 #3 showed G2 robust z-score -0.425; G2 cells, % of GMNN control -0.025; inactive.
Silencing of IFNW1 #1 resulted in: G2 robust z-score 3.92; G2 cells, % of GMNN control 30.6; inactive.
After knock-down of IFNW1 #2, the record shows G2 robust z-score -0.455; G2 cells, % of GMNN control -0.233; inactive.
After knock-down of IFNW1 #3, the screen gave G2 robust z-score -0.241; G2 cells, % of GMNN control 1.27; inactive.
With knock-down of PTGER4 #1, the screen gave G2 robust z-score 0.92; G2 cells, % of GMNN control 9.44; inactive.
After knock-down of PTGER4 #2 the results were G2 robust z-score 0.164; G2 cells, % of GMNN control 4.12; inactive.
Depletion of PTGER4 #3 came out at: G2 robust z-score 1.34; G2 cells, % of GMNN control 12.4; inactive.
Against PTGDR2 #1 the deposit lists G2 robust z-score 8.03; G2 cells, % of GMNN control 59.4; active.
With knock-down of PTGDR2 #2 the results were G2 robust z-score 1.25; G2 cells, % of GMNN control 11.7; inactive.
PTGDR2 #3 gave G2 robust z-score -0.501; G2 cells, % of GMNN control -0.555; inactive.
For MROH2B #1 the deposit lists G2 robust z-score -0.193; G2 cells, % of GMNN control 1.61; inactive.
MROH2B #2 scored G2 robust z-score 0.0504; G2 cells, % of GMNN control 3.32; inactive.
For MROH2B #3, the values are G2 robust z-score 0.596; G2 cells, % of GMNN control 7.16; inactive.
For CADM4 #1, the values are G2 robust z-score 0.166; G2 cells, % of GMNN control 4.13; inactive.
Against CADM4 #2, the entry reads G2 robust z-score 0.00162; G2 cells, % of GMNN control 2.98; inactive.
Knock-down of CADM4 #3 resulted in: G2 robust z-score 0.201; G2 cells, % of GMNN control 4.38; inactive.
After knock-down of S100A8 #1, the screen gave G2 robust z-score -0.229; G2 cells, % of GMNN control 1.36; inactive.
For S100A8 #2, the entry reads G2 robust z-score 0.424; G2 cells, % of GMNN control 5.95; inactive.
After knock-down of S100A8 #3 the results were G2 robust z-score 3.1; G2 cells, % of GMNN control 24.8; inactive.
Against EPDR1 #1, the values are G2 robust z-score 5.34; G2 cells, % of GMNN control 40.5; active.
With knock-down of EPDR1 #2, the screen gave G2 robust z-score -0.867; G2 cells, % of GMNN control -3.13; inactive.
EPDR1 #3 gave G2 robust z-score 4.92; G2 cells, % of GMNN control 37.6; inactive.
For ARRDC4 #1 the deposit lists G2 robust z-score -0.986; G2 cells, % of GMNN control -3.97; inactive.
ARRDC4 #2 showed G2 robust z-score -0.808; G2 cells, % of GMNN control -2.72; inactive.
After knock-down of ARRDC4 #3, the record shows G2 robust z-score -0.0912; G2 cells, % of GMNN control 2.33; inactive.

Single entries from above.
Value for MIXL1 #1 under “Call”: inactive
Result of IFNW1 #3 in “G2 cells, % of GMNN control”: 1.27
Under “Call”, EPDR1 #2 reads inactive
Under “Call”, PTGDR2 #2 shows inactive
